Experimental data published in PubChem BioAssay AID2685 (National Center for Advancing Translational Sciences (NCATS), 2010).
The whole screen tested about 320,000 compounds, of which about 2,100 (0.66%) were called active. The inconclusive results got no clear call from the source; some entries with a clear call stand among them for comparison. The call rests on the fitted dose curve; in most records, active means well fitted inhibition curve with a large enough effect in the signal ratio, with a control signal flat (not every such curve was filed as active); inconclusive means small, poorly fitted or top-dose-only effect, or effect the other way, or a change in a side signal; inactive means flat fitted curve, though single readings scatter; the % refers to the signal ratio. Potencies of inconclusive entries are doubtful fits and often do not repeat.

Test: qHTS Assay for Lipid Storage Modulators in Drosophila S3 Cells
Details: BODIPY lipid droplet fluorescence, 18-24 h, cells fed with added oleic acid; lipid storage change, negative = inhibition: at 46.1 µM (top of the series) unless noted
Summary of the method: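 Laser-scanning cytometry quantifies lipid droplet accumulation (500–530 nm total intensity; droplet/cell object ratio) in oleic acid-fed (400 uM added) Drosophila S3 cells treated with a concentration series. 20 uM Triacsin C defined 100% inhibition.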
On the % scale 0 is the no-effect control and ±100 the full control effect; potency means the concentration at half of the fitted maximal effect.

Structure (SMILES) | Potency | lipid storage change, negative = inhibition
O=[N+]([O-])c1cc([N+](=O)[O-])c(Oc2cc(Cl)ccc2Cl)cc1NC1CCCCCCC1 | inconclusive: 0.184 µM [falling, full curve, poor fit] | 
Cc1ccc2nc(SCC(=O)c3c[nH]c4ccccc34)[nH]c2c1 |  | inconclusive: -72%
Cc1ccc(C(=O)NC(=S)NNC(=O)c2ccccc2O)cc1 |  | inconclusive: -18.4%
COc1ccc(NC(=O)Cn2ccc3c(OC)cccc3c2=O)cc1 |  | inactive: 0.623%
CCO[C@H]1OC(C(=O)N2CCN(Cc3ccc4c(c3)OCO4)CC2)=C[C@@H](C(C)(C)C)[C@@H]1CCCO | inconclusive: 32.6 µM [falling, partial curve, poor fit] | 
COc1ccc([N+](=O)[O-])cc1NC(=O)C(C)OC(=O)C1CCC1 (stereo unspecified) |  | inconclusive: 11.9%
COc1ccc(C2C(C#N)=C(N)OC3=C2C(=O)CCC3)c(OC)c1OC (stereo unspecified) |  | inconclusive: 46%
Fc1ccc(CNCCC(Cc2ccccc2)c2ccco2)cc1 (stereo unspecified) | inconclusive: 0.146 µM [activator, full curve, poor fit] | 
C=CCNC(=O)c1cn(CC)c2cc(N3CCN(C(=O)c4ccco4)CC3)c(F)cc2c1=O |  | inconclusive: 2.37%
COc1ccccc1/C=C/C(=O)N1CCOCC1 | inconclusive: 0.164 µM [activator, full curve, poor fit] | 
COc1ccc(/C=N/NC(=O)c2c(C)nnn2-c2nonc2N)cc1OC |  | inconclusive: -2.04%
CC(C)CN1C(=O)C(=O)N(CC(=O)NC(C)CCc2ccccc2)C1=O (stereo unspecified) |  | inconclusive
CCC1=NN(C(=O)c2ccccc2O)C(O)(c2ccccc2)C1 (stereo unspecified) |  | inconclusive: -43.4%
CCCCCCC1/C(=N/O)CCC1C(=O)OC (stereo unspecified) | inconclusive: 0.326 µM [rising, full curve, poor fit] | 
O=C1CC(c2ccc(S(=O)(=O)N3CCCCC3)cc2)CN1 (stereo unspecified) |  | inconclusive: -19.2%
CCN(C(=O)CSc1nnc(SC(C)C)s1)C1CCS(=O)(=O)C1 (stereo unspecified) | inconclusive: 0.058 µM [activator, full curve, poor fit] | 
Cc1cc(C)c2oc(C(=O)N(Cc3ccc(F)cc3)C3CCS(=O)(=O)C3)cc(=O)c2c1 (stereo unspecified) | inconclusive: 13 µM [falling, partial curve, poor fit] | 
Cc1ccc(NS(=O)(=O)c2cccc(C(=O)OCC(=O)NCc3ccco3)c2)cc1 | inconclusive: 0.291 µM [activator, partial curve, poor fit] | 
Cc1nc(SCC(=O)Nc2cccnc2Cl)nc(C)c1C |  | inconclusive: 5.35%
Cc1ccccc1-n1ncc2c1CC(C)(C)CC2NC(=O)CCC(F)(F)F (stereo unspecified) |  | inactive: 3.89%
Cc1cccc(CN2CCC(C(=O)Nc3ccc(-n4nc(C)cc4C)cc3)CC2)n1 | inconclusive: 0.58 µM [activator, single point] | 
CCN(CC)CCn1c2c(c(SCC(=O)Nc3ccc(C)c(F)c3)nc1=O)CCCC2 |  | inconclusive: -20.5%
O=C(CSc1nc(O)cc(=O)[nH]1)N1c2ccccc2Sc2ccccc21 |  | inconclusive: 13.6%
CCOC(=O)c1ccc(NS(=O)(=O)c2cc(C)ccc2OC)cc1 |  | inconclusive: -25.9%
CC(C)CC(=O)NNC(=O)C(C)C |  | inconclusive: 41.3%
O=C(Cn1cnc2c(nnn2-c2cccc(F)c2)c1=O)Nc1ccc2c(c1)OCCO2 |  | inconclusive: -48.1%

Structure (SMILES) | Potency | lipid storage change, negative = inhibition
Fc1cccc(Cc2noc(CN3CCN(c4cnccn4)CC3)n2)c1 |  | inconclusive: 13.8%
COc1ccccc1C/C(N)=N/OC(=O)c1ccco1 | inconclusive: 5.17 µM [falling, single point] | 
CCN1C(=O)S/C(=C/c2ccc(Sc3nc4ccccc4[nH]3)o2)C1=O | inconclusive: 29.1 µM [falling, single point] | 
CCC(=O)N1CCc2cc(S(=O)(=O)NCCC(=O)N3CCN(c4cccc(C)c4)C(C)C3)ccc21 (stereo unspecified) | inconclusive: 1.64 µM [rising, partial curve, poor fit] | 
O=C(NNC(=O)c1ccc([N+](=O)[O-])o1)c1ccccc1 |  | inconclusive: 34.4%
CS(=O)(=O)N1CCN(c2nc3ccccc3s2)CC1 | inconclusive: 5.8 µM [activator, full curve] | 
CCc1ccc(-c2cc(C)no2)cc1S(=O)(=O)N1CCN(c2ccccc2)CC1 | inconclusive: 6.51 µM [rising, single point] | 
COC(=O)Cn1c2ccccc2c2nc3ccccc3nc21 |  | inconclusive: -40%
CN(Cc1ccccc1)C(=O)c1nc2ccccn2c1CNCCCOc1cccnc1 |  | inconclusive: 10.3%
Cc1ccccc1-c1nn(-c2ccc(F)cc2F)cc1CNCCCO |  | inconclusive: 0.161%
Cc1cccc(NCC(=O)N/N=C\c2cccc(Oc3ccccc3)c2)c1 | inconclusive: 29.1 µM [falling, single point] | 
O=C(Nc1ccc(F)cc1)c1cc(S(=O)(=O)N2CCOCC2)cs1 |  | inconclusive: -100%
CCS(=O)(=O)C1=NSC2=NC(=O)/C(=C\c3ccc(OS(=O)(=O)c4ccccc4)c(OC)c3)C(=N)N21 |  | inconclusive: -145%
CC1=C(C#N)C(c2cccnc2)C2=C(N1)c1ccccc1C2=O (stereo unspecified) |  | inconclusive: 54.1%
O=C(c1ccc(N2CCOCC2)cc1[N+](=O)[O-])N1CCOCC1 |  | inconclusive: 3.91%
COc1ccc(-c2nc3n(n2)C(=O)CC(c2ccco2)S3)cc1 (stereo unspecified) |  | inconclusive: -15.1%
COc1ccc2oc(=O)cc(CN(C)Cc3ccccc3)c2c1 | inconclusive: 29.1 µM [falling, single point] | 
Cc1ccc(S(=O)(=O)n2nc(OC(=O)C(C)(C)C)cc2N)cc1 |  | inconclusive: 15.3%
c1ccc(N2CCN(Cc3nnnn3C3CCCCC3)CC2)cc1 | inconclusive: 0.13 µM [activator, full curve, poor fit] | 
O=C(Nc1ccncc1)c1ccccc1[N+](=O)[O-] |  | inconclusive: 7.63%
O=C(O)C1C2C=CC3(CN(C/C=C/c4ccccc4)C(=O)C13)O2 (stereo unspecified) |  | inconclusive: 12.3%
COc1cc2c(cc1OC)C(c1ccccc1)NC(C)(C)C2 (stereo unspecified) |  | inconclusive: 1.15%
CCCCNC(=O)CCCN1C(=O)c2cccnc2Sc2ccccc21 |  | inconclusive: 56.3%
FC(F)(F)c1ccccc1-n1ccnc1 |  | inconclusive: 17.4%
COc1ccc(CCN2C(=O)C3C4CCC(C4=C(C)C)C3C2=O)cc1OC (stereo unspecified) |  | inconclusive: -64.8%
COC(=O)c1ccc(OCC(O)CN(CC(C)C)CC(C)C)cc1 (stereo unspecified) |  | inconclusive: 8.45%

4 records picked at random from the list so far, as already listed:
Structure (SMILES) | Potency | lipid storage change, negative = inhibition
c1ccc(N2CCN(Cc3nnnn3C3CCCCC3)CC2)cc1 | inconclusive: 0.13 µM [activator, full curve, poor fit] | 
Fc1cccc(Cc2noc(CN3CCN(c4cnccn4)CC3)n2)c1 |  | inconclusive: 13.8%
COc1ccc(CCN2C(=O)C3C4CCC(C4=C(C)C)C3C2=O)cc1OC (stereo unspecified) |  | inconclusive: -64.8%
COc1ccc(-c2nc3n(n2)C(=O)CC(c2ccco2)S3)cc1 (stereo unspecified) |  | inconclusive: -15.1%

The results go on.

Structure (SMILES) | Potency | lipid storage change, negative = inhibition
Cc1ccc(C)c(NC(=O)CN(C)C(=O)Cn2c(=O)oc3ccccc32)c1 |  | inconclusive: 20.9%
Cc1ccc(NC(=O)c2cccc(S(=O)(=O)N3CCCC3)c2)nc1 | inconclusive: 7.31 µM [activator, partial curve] | 
O=C(O)c1ccc(S(=O)(=O)c2ccc3c(c2)C(=O)N(NC(=O)c2ccncc2)C3=O)cc1 |  | inconclusive: 36.2%
CSCC[C@H](NC(=O)OC(C)(C)C)c1nnc(SCC(=O)Nc2ccc(C)cc2C)o1 |  | inconclusive: -11.2%
COC(=O)C1=C(C)N(Cc2ccccc2)C(=NCCCCO)N[C@H]1c1cccc(C(F)(F)F)c1 |  | inconclusive: 30.7%
O=C(NCc1nnc(SCC(=O)N2CCN(c3ccccc3)CC2)o1)c1c(F)cccc1F |  | inconclusive: -41.4%
N#CCCN(C(=O)COC(=O)CCNS(=O)(=O)c1ccccc1)c1ccccc1 | inconclusive: 0.13 µM [activator, full curve, poor fit] | 
CCOC(=O)c1ccc2nc(C)c3c(c2c1)OC(C)C3 (stereo unspecified) |  | inconclusive: 46.8%
COCCN(CCOC)C(=O)c1c[nH]c2ccc(S(=O)(=O)N(C)c3ccc(F)cc3)cc2c1=O |  | inconclusive: -15%
O=C(Nc1cn(-c2ccccc2)nc1-c1ccc(Cl)cc1)c1ccccc1 |  | inconclusive: 36.1%
CCOC(=O)c1c(C)oc2c1cc(NS(=O)(=O)c1ccc(C(=O)O)cc1)c1ccccc12 |  | inconclusive: -0.876%
COC(=O)CC1C(=O)NCCN1C(=S)NC(=O)CCc1ccccc1 (stereo unspecified) |  | inconclusive: -18.6%
COc1ccc2nc(SCC(C)=O)c(C#N)cc2c1 |  | inconclusive: -10.3%
CCc1ccccc1NC(=O)C1=CC(c2ccc(OC)c(OC)c2)=NS(=O)(=O)N1C |  | inconclusive: -0.955%
CCOc1ccc(CN(C)C(=O)CNC(=O)C2CCCCC2)cc1OC |  | inconclusive: -0.288%
CCOC(=O)C1CCN(CC(O)COCc2ccccc2)CC1 (stereo unspecified) |  | inactive: 10.2%
O=C(NCCc1ccccc1)c1nc(CS(=O)(=O)c2ccc(Cl)cc2)no1 |  | inconclusive: 17.6%
O=C1c2ccccc2C(=O)N1c1ncc(Cc2ccc(Cl)cc2)s1 |  | inconclusive: 12.7%
CCCCN(Cc1ccccc1)S(=O)(=O)c1cc(Br)cc2c1N(C(C)=O)C(C)C2 (stereo unspecified) | inconclusive: 5.17 µM [activator, partial curve] | 
Cc1cccc(Cn2cccc2/C=C2/C(=N)N3C=CSC3=NC2=O)c1 |  | inconclusive: -10.7%
C=CCN1C(=O)C2(OCCCO2)c2cccc(C)c21 | inconclusive: 29.1 µM [activator, single point] | 
Cn1c(Oc2ccc3c(c2)OCO3)nc2c1c(=O)n(Cc1ccccc1)c(=O)n2C |  | inconclusive: -2.16%
CC(C)(C)C1CCC(=NNC(=S)NCc2ccccc2)CC1 (stereo unspecified) |  | inconclusive: 19.9%
COc1cc(/C=C2/SC(=S)N(CC(=O)O)C2=O)ccc1OC(=O)c1cccs1 |  | inconclusive: -34.8%
